Measurements published in US20130130273A1 (KOREA BASIC SCIENCE INSTITUTE, published 2013).
Results are given in words; binding and its absence hold for the method and conditions named. Some binding calls cover weakened binding; strength is not graded here. Sequences can lack the tags named with a protein.

B1: CFP-RRS (protein, UniProt P54136 1-660, looked up, not shown: large carriers)
chain: MDVLVSECSARLLQQEEEIKSLTAEIDRLKNCGCLGASPNLEQLQEENLKLKYRLNILRKSLQAERNKPTKNMINIISRLQEVFGHAIKAAYPDLENPPLLVTPSQQAKFGDYQCNSAMGISQMLKTKEQKVNPREIAENITKHLPDNECIEKVEIAGPGFINVHLRKDFVSEQLTSLLVNGVQLPALGENKKVIVDFSSPNIAKEMHVGHLRSTIIGESISRLFEFAGYDVLRLNHVGDWGTQFGMLIAHLQDKFPDYLTVSPPIGDLQVFYKESKKRFDTEEEFKKRAYQCVVLLQGKNPDITKAWKLICDVSRQELNKIYDALDVSLIERGESFYQDRMNDIVKEFEDRGFVQVDDGRKIVFVPGCSIPLTIVKSDGGYTYDTSDLAAIKQRLFEEKADMIIYVVDNGQSVHFQTIFAAAQMIGWYDPKVTRVFHAGFGVVLGEDKKKFKTRSGETVRLMDLLGEGLKRSMDKLKEKERDKVLTAEELNAAQTSVAYGCIKYADLSHNRLNDYIFSFDKMLDDRGNTAAYLLYAFTRIRSIARLANIDEEMLQKAARETKILLDHEKEWKLGRCILRFPEILQKILDDLFLHTLCDYIYELATAFTEFYDSCYCVEKDRQTGKILKVNMWRMLLCEAVAAVMAKGFDILGIKPVQRM
B2: GFP-DRS (protein, UniProt P14868 1-501, looked up, not shown: large carriers)
chain: MPSASASRKSQEKPREIMDAAEDYAKERYGISSMIQSQEKPDRVLVRVRDLTIQKADEVVWVRARVHTSRAKGKQCFLVLRQQQFNVQALVAVGDHASKQMVKFAANINKESIVDVEGVVRKVNQKIGSCTQQDVELHVQKIYVISLAEPRLPLQLDDAVRPEAEGEEEGRATVNQDTRLDNRVIDLRTSTSQAVFRLQSGICHLFRETLINKGFVEIQTPKIISAASEGGANVFTVSYFKNNAYLAQSPQLYKQMCICADFEKVFSIGPVFRAEDSNTHRHLTEFVGLDIEMAFNYHYHEVMEEIADTMVQIFKGLQERFQTEIQTVNKQFPCEPFKFLEPTLRLEYCEALAMLREAGVEMGDEDDLSTPNEKLLGHLVKEKYDTDFYILDKYPLAVRPFYTMPDPRNPKQSNSYDMFMRGEEILSGAQRIHDPQLLTERALHHGIDLEKIKAYIDSFRFGAPPHAGGGIGLERVTMLFLGLHNVRQTSMFPRDPKRLTP

What was measured:
TMD-HcR-p38 [1] = biological target: TMD-HcR-p38 (UniProt Q13155); assay: co-translocation of a five-protein complex with p38 first construct after PMA, HEK293 cells; binding to p38 may be indirect
TMD-HcR-p38 [2] = biological target: TMD-HcR-p38 (UniProt Q13155); assay: co-translocation of a five-protein complex with TMD-HcR-p38 after PMA, confocal microscopy, HEK-293 cells; binding to p38 may be indirect

Row | Binder | binding (TMD-HcR-p38 [1]) | binding (TMD-HcR-p38 [2])
1 | B1 | binds | binds
2 | B2 | binds | binds
